Data on 1 molecule can be found in patent publication JP2004097211A.

The assay addresses 抗体41S−2の軽鎖. In words: ELISA screening of hybridomas. Background: In an ELISA, binding on a coated surface is turned into a signal by an enzyme label.

Results are given in words; binding and its absence hold for the method and conditions named. Some results given as binding are weak or reduced against the parent protein; the word gives no strength.

B1: i41−7完全抗体 (antibody, V domains shown)
VH: EIQLQQSGPELVRPGASVKVSCKASGYSFTNSIMYWVRQSHGKSLEWIGYIDPYNGGTSYNQKFKGKATLTVDKSSSTAFMHLNSLTSEDSAVYFCARFIVVVADVMDYWGQGTSVTVSS
VL: DIVMTQSHKFMSTSVGDRVSITCKASQDVSTAVAWYQQKPGQSPKLLIYWASTRHTEVPDRFTGSGSGTDYTLTISSVQAEDLALYYCQQHYNTPLTFGAGTKLELKR
For the molecule B1, the binding result is reported as “binds”.
